{"source": "paper PMC4038059", "binders": {"B1": {"name": "meiosis-specific nuclear structural 1 (MNS1) (protein, UniProt Q61884 1-491)", "chain": "MATKKRALSFSEKHQKLVDEKFRKSLNIQVMNKLERQAKNQVVQNENDEKVERQRFLRVLQNEQFELDMEEAIQKAEANKMLRDRQLEQEERLANELARLKHESLKDKKMRQQVRENSIELRELEQKLKAAYMNKERAAQIVEKDAMKYEQMKRDAEIERIMMEEHDRLLKEESAKQERRNKERAQYYLDLEKQLEDQERRKQEAYEQLLKEKLMIDEIVRKIYEEDQVERQQKLEKKNAIQKYIEEFQRAQDFWRQKKREEMEEENRKIIEFANIQEQREGERMARVHEIEEKRVQRQNLLMKQLEETLRQRDDLEQVRQELYQEEQAEIIKLKVKEEAELRLRRQREMKQDFEDQMALKELILQAAKEEEETFKKAMLAKFAEDDRIELMNAQKQRMKQLEHKRAVEKLIEERRSQFLADKQRELEELQLQQRRQGCINEIIEEERLRLLKEHAAKLLGYLPKGVFKREDDVDMLGEEFRKAYQKRDGV"}, "B2": {"name": "mitofusin 2 (MFN2) (protein, UniProt Q80U63 1-757)", "chain": "MSLLFSRCNSIVTVKKDKRHMAEVNASPLKHFVTAKKKINGIFEQLGAYIQESASFLEDTHRNTELDPVTTEEQVLDVKGYLSKVRGISEVLARRHMKVAFFGRTSNGKSTVINAMLWDKVLPSGIGHTTNCFLRVGGTDGHEAFLLTEGSEEKKSVKTVNQLAHALHQDEQLHAGSMVSVMWPNSKCPLLKDDLVLMDSPGIDVTTELDSWIDKFCLDADVFVLVANSESTLMQTEKQFFHKVSERLSRPNIFILNNRWDASASEPEYMEEVRRQHMERCTSFLVDELGVVDRAQAGDRIFFVSAKEVLSARVQKAQGMPEGGGALAEGFQVRMFEFQNFERQFEECISQSAVKTKFEQHTVRAKQIAEAVRLIMDSLHIAAQEQRVYCLEMREERQDRLRFIDKQLELLAQDYKLRIKQITEEVERQVSTAMAEEIRRLSVLVDEYQMDFHPSPVVLKVYKNELHRHIEEGLGRNLSDRCSTAIASSLQTMQQDMIDGLKPLLPVSMRNQIDMLVPRQCFSLSYDLNCDKLCADFQEDIEFHFSLGWTMLVNRFLGPKNSRRALLGYSDQVQRPLPLTPANPSMPPLPQSSLTQEELMVSMVTGLASLTSRTSMGILVVGGVVWKAVGWRLIALSFGLYGLLYVYERLTWTTKAKERAFKRQFVEYASEKLQLIISYTGSNCSHQVQQELSGTFAHLCQQVDITRDNLEQEIAAMNKKVEALDSLQSRAKLLRNKAGWLDSELNMFTHQYLQPSR"}}, "key": {"[1]": {"target": "T1, mitofusin 2 (MFN2) (mouse (endogenous in mixed germ cells of C57BL/6 testes)) (UniProt Q80U63)", "T1 sequence": "B2 chain", "experiment": "co-IP; Direct Magnetic IP/Co-IP Kit (Pierce); 5 ug of MNS1 purified antibody or MFN2 antibody coupled to N-hydroxysuccinimide-activated magnetic beads; 2 mg of mixed germ cell protein (IP Lysis/Wash Buffer lysate), rotation for 2 h; eluate analysed by SDS-PAGE and immunoblot with anti-MNS1 and anti-MFN2"}, "[2]": {"target": "T2, meiosis-specific nuclear structural 1 (MNS1) (mouse (endogenous in mixed germ cells of C57BL/6 testes)) (UniProt Q61884)", "T2 sequence": "B1 chain", "experiment": "co-IP; Direct Magnetic IP/Co-IP Kit (Pierce); 5 ug of MNS1 purified antibody or MFN2 antibody coupled to N-hydroxysuccinimide-activated magnetic beads; 2 mg of mixed germ cell protein (IP Lysis/Wash Buffer lysate), rotation for 2 h; eluate analysed by SDS-PAGE and immunoblot with anti-MNS1 and anti-MFN2"}}, "note": "Results are given in words; binding and its absence hold for the method and conditions named. In cells and extracts the contact can be indirect. Some binding calls cover weakened binding; strength is not graded here. Where a sequence is shown, tags or fusion partners need not be part of it."}
{"binder": "B1", "values": [{"measurement": "binding", "setting": "[1]", "result": "binds"}]}
{"binder": "B2", "values": [{"measurement": "binding", "setting": "[2]", "result": "binds"}]}
